# Library screen at single concentrations

Chains of the proteins cited; added tags and fusions are not shown. Residues count along the entry.
UniProt A4I591, 1-473: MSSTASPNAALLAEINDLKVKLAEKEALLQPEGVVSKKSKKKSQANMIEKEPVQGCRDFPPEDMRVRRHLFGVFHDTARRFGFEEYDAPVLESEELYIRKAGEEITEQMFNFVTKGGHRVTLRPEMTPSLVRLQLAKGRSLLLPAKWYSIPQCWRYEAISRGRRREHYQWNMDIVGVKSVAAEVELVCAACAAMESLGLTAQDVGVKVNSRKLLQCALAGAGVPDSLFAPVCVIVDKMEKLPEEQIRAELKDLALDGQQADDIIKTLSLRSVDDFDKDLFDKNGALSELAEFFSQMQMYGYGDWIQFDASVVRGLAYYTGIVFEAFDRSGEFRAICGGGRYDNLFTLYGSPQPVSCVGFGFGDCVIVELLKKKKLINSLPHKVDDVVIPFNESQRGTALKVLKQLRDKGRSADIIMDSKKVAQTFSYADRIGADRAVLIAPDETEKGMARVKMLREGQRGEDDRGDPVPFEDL
UniProt P9WPC5, whole entry: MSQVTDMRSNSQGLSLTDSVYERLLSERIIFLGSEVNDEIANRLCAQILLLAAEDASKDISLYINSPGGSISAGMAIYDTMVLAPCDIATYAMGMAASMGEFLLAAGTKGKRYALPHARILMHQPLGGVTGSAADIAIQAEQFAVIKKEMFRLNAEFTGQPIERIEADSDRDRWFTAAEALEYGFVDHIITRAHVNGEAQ
UniProt P9WPC3, whole entry partner: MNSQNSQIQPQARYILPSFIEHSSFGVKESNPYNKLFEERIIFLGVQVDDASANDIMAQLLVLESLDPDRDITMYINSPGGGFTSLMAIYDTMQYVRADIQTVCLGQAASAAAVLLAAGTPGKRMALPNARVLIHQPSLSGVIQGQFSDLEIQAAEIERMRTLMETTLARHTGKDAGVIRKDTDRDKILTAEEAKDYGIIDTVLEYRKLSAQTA

LiHisRS: 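Enzyme assay of histidyl-tRNA synthetase; the read-out is not stated. Target: Histidine-tRNA ligase, Leishmania infantum (UniProt A4I591). Compounds at 30 µM. Direction is inferred from retests: higher values go with stronger inhibition. The assay is labelled LdHisRS but filed under L. infantum. About 69,000 compounds were tested under these conditions; 0.6% (about 410) showed 50% or more at least once.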
Toxoplasma: 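Assay of Toxoplasma gondii numbers, read through their beta-galactosidase reporter with a colour substrate. Compounds at 10 µM. The record gives no direction; the compounds picked for IC50 retests had high values, so higher reads as fewer parasites. About 67,000 compounds were tested under these conditions; 0.38% (about 260) showed 50% or more at least once.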
ClpP1P2: 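Protease assay of ClpP1P2, read by the AMC dye that it sets free. Target: ClpP1P2, Mycobacterium tuberculosis (UniProt P9WPC5 and UniProt P9WPC3). Tested at 50 µM. Higher reads as stronger inhibition, judged from the few compounds that gave an IC50. Most other retested compounds had strongly negative values. Of about 69,000 compounds tested this way, about 10 (0.015%) reached 50% or more in at least one test.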
T. brucei: 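Whole-parasite assay of Trypanosoma brucei over 72 hours; the read-out is not stated. Concentration: 30 µM. The record gives no direction; compounds that gave an IC50 in retests scored well above the rest, so higher reads as stronger inhibition. Values scatter widely below zero; nearly all retest evidence comes from the higher of the two concentrations used. Of about 64,000 compounds tested this way, about 940 (1.5%) reached 50% or more in at least one test.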
Leishmania in macrophages: 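Cell assay of Leishmania donovani living inside macrophages; the read-out is not stated. Concentration: 30 µM. Higher reads as stronger inhibition (inferred: compounds with an IC50 in retests scored well above the rest). Of about 69,000 compounds tested this way, about 1,000 (1.5%) reached 50% or more in at least one test.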

Values are the deposited “Percent Effect”, in %.
The record does not define 0% and 100%; most values in the screen are far below 50% and negative numbers occur (in some assays of this library far below -100).
This is an unselected part of the compounds tested.
Two or more numbers in one place are separate tests of the same structure; such repeats can differ widely.
A dash means the value is not listed here; it may have been measured.

structure,LiHisRS,Toxoplasma,ClpP1P2,T. brucei,Leishmania in macrophages
CN(C)C(=O)CN1CCCN(CC2CCOc3ccccc3C2)CC1 (stereo unspecified),31.51,-2.833,-0.7495,-25.53,-10.85
CN(C)C(=O)C1CN(Cc2ccsc2)Cc2ccnn2C1 (stereo unspecified),12.28,-,13.46,-,-
COc1ncccc1CNC(=O)N1CCC(CNC(C)=O)CC1,13.22,2.67,4.212,-14.7,15.18
O=C(NC[C@H]1OC[C@@H](NCc2ccc(F)cc2)[C@@H]1O)c1ccncc1,16.22,6.073,-3.774,6.65,6.211
O=C(Cc1ccc(F)cc1)NCC(O)(c1cccs1)C1CC1 (stereo unspecified),12.17,9.91,12.66,-23.44,-4.773 & 10.05
CC(C(=O)O)N1CC2(CCC1=O)CCN(CCSc1ccccc1)CC2 (stereo unspecified),14.75,5.692,-4.23,-4.022,33.29
Cn1ccc2c(cnc3nc(-c4ccncc4)nn32)c1=O,15.22,0.4449,-72.52,-43.99,16.75
Cc1ccc(N2C(=O)N[C@@H]3CCN(C(=O)C4CCCC4)[C@@H]3C2=O)cc1,11.11,-,-9.37,-,-
Cc1cncc(C(=O)N2CCc3ncc(Cn4cccn4)n3CC2)c1,-1.389,18.56,-9.663,-9.825,-12.42
COCCCN1CCCN(C(C)c2nc(C3CC3)no2)CC1 (stereo unspecified),12.31,2.046,-9.167,5.011,35.53
O=C(Cc1ccccc1)N1CCCC2(COCCN(CC3CC3)C2)C1.O=C(O)C(F)(F)F (stereo unspecified),-,2.818,-,2.093,28.1
O=C1NC2(CCN(Cc3cccs3)CC2)CC1c1ccncc1 (stereo unspecified),-1.818,-,3.426,-,-
CC(OCC1CC1)C(=O)NCc1cccc(CN2CCN(C)CC2)c1 (stereo unspecified),-8.219,-1.741,-10.23,-31.08,-12.17
CCC1c2ccccc2CCN1C(=O)c1ccc(OC)nn1 (stereo unspecified),13.68,2.997,-12.69,-9.811,29.06
COc1ccc(OCc2cc(C(=O)N3CCCCO3)n[nH]2)c(Cl)c1,12.82,-8.751,-9.737,-4.826,3.059 & 26.47
CC(Cn1cccn1)NCC(=O)N(C)Cc1ccsc1 (stereo unspecified),10.84,7.007,-12.73,-24.65,-3.891
COc1ccccc1-c1nc(C(=O)N2CCOCC2)n2ccncc12,1.379,8.614,-367.3,-,34.21
Cc1ccc(CNC(=O)NCC(=O)N2CCCC2)c(N2CCCC2)c1,-1.667,1.806,1.637,-50.93,5.639
CN1[C@@H](c2ccccc2)[C@@H](C(=O)NCc2ccccn2)C[C@@]1(C)C(=O)O,19.15,-11.48,3.833,-29.64,35.45
Cc1ccc(C(C(=O)NCc2cc(C)[nH]n2)N(C)C)cc1 (stereo unspecified),18.03,0.3062,-0.8369,-89.66,-25.23
Cn1cccc1C(=O)N1CCC2(CC1)CN(c1ccccc1)C(=O)CO2,-44,-17.34,-8.049,-190.7,-22.9
OC(CN1CCOCC1)c1ccc(OC(F)(F)F)cc1 (stereo unspecified),19.05,-2.24,6.188,2.111,21.45
O=C(O)C(F)(F)F.O=C(O)C(F)(F)F.[H][C@@]12CCN(Cc3ccccc3)C[C@]1([H])[C@@H](CNc1ncccn1)OC2,-,10.1,-,-5.64,8.127
Cc1cc(-c2cnc(N3CCOCC3)nc2-c2cccnc2C)on1,0,2.321,-10.9,-10.3,-16.93
CC(C)c1ccc(S(=O)(=O)N2CSCC2C(=O)NCC(F)(F)F)cc1 (stereo unspecified),16.52,-11.82,1.014,-5.544,31.97
CCc1c(C(=O)O)nnn1-c1cc(C)ccc1C,17.39,-,11.59,-37.3,31.3
Cc1ccc2c(c1)SCC(=O)N2Cc1noc(C2CCCO2)n1 (stereo unspecified),23.78,-6.364,11.5,-3.313,15.76
CSc1ccccc1C(=O)C1CCCN(Cc2cc(C(C)C)[nH]n2)C1 (stereo unspecified),6.667,19.08,-8.809,-53.26,41.88
Cc1cc(C)c(CNC(=O)N(C)CC2CCCCO2)c(=O)[nH]1 (stereo unspecified),13.6,-9.88,-1.677,-51.74,-22.45
Cc1cc(C)c(CNC(=O)N(C)Cc2ccoc2)c(=O)[nH]1,9.649,8.634,-15.69,4.606,4.818
CN(C)c1nc2n(c(=O)n1)CCN2C(=O)Nc1ccccc1,3.333,4.867,-3.107,-46.86,-2.868
Cc1cccn2c(CNC(C)CCn3cccn3)cnc12 (stereo unspecified),11.29,-6.029,-3.982,-7.84,-18.85
OCCc1cc(CC2(NCc3ccncc3)COC2)no1,11.11,5.542,-13.75,22.34,22.58
O=C(NC1CCCN(c2ccc(OC(F)F)cc2)C1)c1cnccn1 (stereo unspecified),22.86,8.221,-2.258,-42.98,5.21
CCCN1CCC(N2CCN(c3cccc(C)n3)CC2)CC1,10.17,-3.736,-16.81,-22.15,20.84
CCN(CCNC(=O)Nc1nnc(C)s1)C(=O)OC(C)(C)C,-5.181,8.147,5.119,-9.56,1.807
Cc1nn(CCC#N)c(C)c1CCC(=O)N(C(C)C)C1CC1,14.29,-8.69,0.02261,-31.87,22.22
CCCSc1nc(O)c(CC)c(=O)n1-c1ccccc1,-19.83,-1.274,-6.094,9.877,13.03
Cc1ccn2c(F)c(C(=O)N3CCC4(CCC(=O)N(C)C4)CC3)nc2c1,6.557,-19.2,-9.035,-13.42,5.023
COc1ccccc1CC(=O)NCc1ccnc(NC2CC2)c1,10.53,8.822,1.073,18.69,6.303
Cc1csc(CCNC(=O)C2CCOC2)n1 (stereo unspecified),0.8547,-10.99,-11.89,-9.984,-8.523
O=C(NCCN1CCCCC1)c1ccn(-c2ccc(F)cc2)n1,4.386,25.77,-32.85,-4.218,-17.26
CCc1noc(CS(=O)(=O)c2cccc(OC)c2)n1,10.96,-0.3578,-1.159,-11.01,-23.3
COc1cccc(Nc2nc(C3CCCNC3)c3sc(C)c(C)n23)c1 (stereo unspecified),11.51,-,-1.29,-,-
CCc1noc(CN(C)C2CCN(c3sccc3C#N)C2=O)n1 (stereo unspecified),7.853,-2.684,1.965,13.15,27.11
Cc1nc(C)n(CC2CCCCN2CC(=O)Nc2cccnc2)n1 (stereo unspecified),27.88,-7.037,-6.87,6.698,15.36
Br.O=C(CN(C1=NCCCC1)c1ccccc1)c1ccc(OC(F)F)cc1,-,1.994,-,-7.492,3.093 & 8.829
[H][C@@]12OCCN(S(=O)(=O)c3cn(C)cn3)[C@@]1([H])CC[C@H]2OCC1CC1,-,8.931,-,-15.42,-6.079
Cc1csc2c(N3CCNC(C(=O)NCc4cccnc4)C3)ncnc12 (stereo unspecified),-3.279,-26.59,-14.57,-5.987,-26.07
c1cnn([C@@H]2CN(Cc3nccs3)[C@@H]3CCCO[C@@H]32)c1,21.37,-,5.317,-,-
Cc1ccccc1C1(C(=O)NCCN2CCCCC2C)CCOCC1 (stereo unspecified),10.19,-7.981,-16.52,5.493,-4.641
O=S(=O)(NC[C@H]1C[C@@H]2CCN1C[C@@H]2CN1CCOCC1)c1ccccc1,19.44,-,-16.07,-,-
O=C(O)C(F)(F)F.O=C(O)C(F)(F)F.[H][C@@]12CN(Cc3scnc3C)C[C@H](C(=O)N3CCCO3)[C@]1([H])CCO2,-,9.262,-,38.72,13.5
O=C(O)C(F)(F)F.O=C(O)C(F)(F)F.[H][C@]12CO[C@H](CN(C)Cc3ccco3)[C@@]1([H])CCN(c1ncc(F)cn1)C2,-,-35.41,-,-14.08,-7.483
Cc1cccc(S(=O)(=O)N2CSCC2C(=O)NCC2CC2)c1 (stereo unspecified),18.07,-24.82,0.586,-20.53,-6.477
Cc1cc(C(O)CCNC(=O)c2ccc(Cl)s2)c(C)o1 (stereo unspecified),19.51,13.55,-5.395,-22.86,5.556
Cc1nc(N(C)C)ncc1C(=O)NCCCn1nccc1C1CC1,-1.709,0.663,-1.527,-17.7,-28.29

Source: ChEMBL document CHEMBL3988442, “University of Dundee, Small-Polar-MMV Screening Library” (2021).